Measurements as given in PubChem BioAssay AID504467 (National Center for Advancing Translational Sciences (NCATS), 2011).
About 7,700 (2.3%) of roughly 330,000 compounds were called active. The inconclusive results got no clear call from the source; some entries with a clear call stand among them for comparison. The call rests on the fitted dose curve; in most records, active means well fitted inhibition curve with a large enough effect; inconclusive means small, poorly fitted or top-dose-only effect, or effect the other way; inactive means flat fitted curve, though single readings scatter. Potencies of inconclusive entries are doubtful fits and often do not repeat.

assay: qHTS screen for small molecules that inhibit ELG1-dependent DNA repair in human embryonic kidney (HEK293T) cells expressing luciferase-tagged ELG1; details: HEK293T ELG1-luciferase reporter, luminescence, 16 h, DNA damage induced by 5-fluorouridine; activity change, negative = inhibition: at 46.1 µM (top of the series); further: nearly all actives have a fitted effect of over 55% in size
In short: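 Overnight (16 hr) co-exposure of 2,000 cells/well to 5-fluorouridine and compound at 37 °C preceded detection. Luciferase was quantified via ONE-Glo luminescence; loss of signal denotes inhibition.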
On the % scale 0 is the no-effect control and ±100 the full control effect; potency means the concentration at half of the fitted maximal effect.

Structure (SMILES) | Potency | activity change, negative = inhibition
COc1ccc(C(=O)COC(=O)C(O)c2ccccc2)c(OC)c1 (configuration not stated) | inconclusive: 13 µM [activator, partial curve] | 
C=CCN1C(=O)SC(Cc2cccc(OC)c2O)C1=O (configuration not stated) |  | inactive: 0%
O=Nc1c2cc(-c3ccccc3)[nH]nc-2c2ccccc12 | inconclusive: 0.517 µM [activator, partial curve] | 
[N-]=[N+]=NC[C@H](Cc1ccccc1)N1CC[C@@H](O)CCC1=O |  | inactive: -3.04%
Cc1ccc(C(=O)NCc2ccc(N3CCN(C)CC3)cc2)cc1C | inconclusive: 23.1 µM [activator, single point] | 
CC1CCCCN1C(=O)COc1ccc2ccc(=O)oc2c1 (configuration not stated) | inconclusive: 25.9 µM [activator, single point] | 
COc1ccc(NC(=O)CN(C)C(=O)c2cn(-c3ccccc3)nc2-c2ccc(Cl)cc2)cc1 | inconclusive: 18.3 µM [inhibitor, single point] | 
COc1ccc(Cl)cc1NC(=O)CN(C)C(=O)CCc1nc2ccccc2c(=O)[nH]1 | inconclusive: 35.5 µM [inhibitor, single point] | 
Nc1cc(Cl)ccc1C(=O)OCC(=O)NCc1cccs1 | inconclusive: 4.61 µM [activator, single point] | 
O=S(=O)(Nc1ccc2nc(N3CCOCC3)sc2c1)c1ccc(Cl)cc1 | inconclusive: 14.6 µM [activator, partial curve] | 
CCOC(=O)c1cnn2c(C)cc(-c3ccccc3)nc12 | inconclusive: 10.3 µM [activator, partial curve] | 
COc1cccc(-c2cnc(NCc3cc(Cl)ccc3O)n2C)c1 | inconclusive: 23.1 µM [inhibitor, partial curve, poor fit] | 
COc1cc(NC(=O)c2cccs2)c(OC)cc1NC(=O)CCn1nnc2ccccc21 | inconclusive: 16.4 µM [inhibitor, single point] | 
Cc1ccccc1-n1nc(C)c2cc(C(=O)N3CCN(S(=O)(=O)c4ccc(F)cc4)CC3)sc21 | inconclusive: 9.2 µM [inhibitor, partial curve, poor fit] | 
CC1(C)Cc2c(c(-c3ccco3)nc3sc4c(NCCCO)ncnc4c23)CO1 | active: 13 µM | 
Cc1cccc(Nc2nnc(SCC(=O)NCC3CCCO3)s2)c1 (configuration not stated) | inconclusive: 10.3 µM [activator, partial curve] | 
CCOC(=O)Nc1cccc(OCC(=O)Nc2ccc3c(c2)CCC3)c1 | inconclusive: 23.1 µM [inhibitor, single point] | 
COC(=O)c1ccc(NC(=O)C(=O)N2CCN(C(=S)NCCc3ccccc3)CC2)cc1 | inconclusive: 2.59 µM [inhibitor, single point] | 
COc1ccc(OC)c(CNC(=O)C2CCCN(c3ncnc4c3nc3n4CCCCC3)C2)c1 (configuration not stated) | inconclusive: 18.3 µM [inhibitor, partial curve] | 
CC(=O)Oc1ccc2c(=O)c(-c3ccccc3)coc2c1 | inconclusive: 13 µM [activator, partial curve] | 
CCOC(=O)CC1C(=O)NCCN1Cc1cccs1 (configuration not stated) |  | inactive: 3.3%
O=C(c1cc(COc2ccc(F)c(F)c2)on1)N1CCOCC1 | inconclusive: 13 µM [activator, partial curve] | 
c1csc(-c2nc(-c3ccc(-c4ccon4)s3)no2)c1 | inconclusive: 4.61 µM [activator, partial curve] | 
CCOC(=O)c1c(C)[nH]c(C(=O)OCC(=O)NCc2ccc(F)cc2)c1C | inconclusive: 23.1 µM [activator, partial curve, poor fit] | 

Structure (SMILES) | Potency | activity change, negative = inhibition
COc1ccc(-c2cc3ccc(OCC(=O)NCC4CCC(C(=O)O)CC4)cc3oc2=O)cc1 (configuration not stated) | inconclusive: 29.1 µM [activator, single point] | 
CN(C(=O)c1cccc(NC(=O)c2cccs2)c1)c1ccccc1 |  | inactive: 16.8%
COc1ccc(-c2noc(-c3ccccc3Cl)n2)cc1OC | inconclusive: 3.66 µM [activator, partial curve] | 
COc1ccc(-c2csc(NC(=O)c3cccs3)c2C(=O)O)cc1OC | inconclusive: 32.6 µM [activator, partial curve, poor fit] | 
CCN(CC)CCOC(=O)C1(c2ccc(OC)c(OC)c2)CCCC1 |  | inactive: 1.12%
CN(CC(=O)Nc1cc(S(=O)(=O)N2CCCC2)ccc1Cl)Cc1cccs1 | inconclusive: 29.1 µM [inhibitor, single point] | 
NS(=O)(=O)c1cc(C(=O)N=Nc2c(O)[nH]c3ccccc23)ccc1Cl |  | inactive: -3.48%
c1cncc(CSc2nnc3ccc(-c4cccs4)nn23)c1 | inconclusive: 29.1 µM [inhibitor, single point] | 
O=C(Nc1nc2ccccc2s1)c1cc2c(s1)-c1ccccc1OC2 | inconclusive: 7.31 µM [activator, partial curve] | 
Cc1nn(CC(=O)NN)c(C)c1Br |  | inactive: 5.52%
Cc1ccccc1C(=O)Nc1cccc(C#N)c1 | inconclusive: 20.6 µM [activator, partial curve] | 
CC(C)CC(=O)NC(=S)Nc1ccc(N2CCCC2)c(Cl)c1 |  | inactive: 16.9%
CN1C(=S)SC2CS(=O)(=O)CC21C (configuration not stated) |  | inactive: 0.129%
CCCc1cc2c(cc1NC(=O)c1ccc(C)cc1)OCO2 | inconclusive: 16.4 µM [activator, partial curve, poor fit] | 
Nc1nc2nc(-c3ccc(Cl)cc3)cc(C(F)(F)F)n2n1 | inconclusive: 9.2 µM [activator, partial curve, poor fit] | 
O=C(/C=C/c1ccc(Cl)cc1)N1CCN(Cc2ccccc2)CC1 |  | inactive: 6.87%
CNC(=O)C(=O)NCC1OCCN1S(=O)(=O)c1ccc(OC)c(OC)c1 (configuration not stated) |  | inactive: 15.5%
COc1cc(NC(=O)c2ccc(Br)o2)ccc1NC(=O)C(C)C | inconclusive: 20.6 µM [activator, single point] | 
Cc1nc(S(=O)(=O)N2CCOCC2)c(C#N)c(C)c1Cl |  | inactive: 2.9%
COc1cccc(CNC(=O)CSc2cc(=O)n(C)c3ccccc23)c1 | inconclusive: 23.1 µM [activator, single point] | 
O=C(C1CCN(S(=O)(=O)c2cnc[nH]2)CC1)N1CCN(c2ccc([N+](=O)[O-])cc2)CC1 |  | inactive: 14.7%
CCN(CC)c1ccc(NC(=O)COC(=O)/C=C/c2nc3ccccc3s2)cc1 |  | inactive: -0.493%
CCc1cc(=O)oc2c3c(cc(OCC(=O)NCCCn4ccnc4)c12)OC(C)(C)CC3 | inconclusive: 0.0046 µM [inhibitor, full curve, poor fit] | 
N#CCCn1cc(C(CC(=O)c2ccc(Br)cc2)C(=O)O)c2ccccc21 (configuration not stated) |  | inactive: -1.91%

2 of these compounds, reformatted.
O=C(C1CCN(S(=O)(=O)c2cnc[nH]2)CC1)N1CCN(c2ccc([N+](=O)[O-])cc2)CC1
  activity change, negative = inhibition: inactive: 14.7%
CCc1cc(=O)oc2c3c(cc(OCC(=O)NCCCn4ccnc4)c12)OC(C)(C)CC3
  Potency: inconclusive: 0.0046 µM [inhibitor, full curve, poor fit]

(continued)

Structure (SMILES) | Potency | activity change, negative = inhibition
COc1ccc2cc(-c3ccccc3F)ncc2c1 | inconclusive: 1.3 µM [activator, full curve] | 
COc1ccccc1-n1nc(C)c(-c2ccccc2)c1N |  | inactive: 0.0236%
CC1CC(C)CN(C(=O)c2ccc(-c3ccc([N+](=O)[O-])cc3)o2)C1 (configuration not stated) | inconclusive: 14.6 µM [activator, partial curve, poor fit] | 
CC(=O)C[C@@H](O)CC(=O)[C@H]1OC(=O)CCCCCCCCc2ccccc21 |  | inactive: 18.3%
O=C(CSc1ccccc1)NNC(=O)c1ccncc1 | inconclusive: 18.3 µM [activator, partial curve, poor fit] | 
CN(Cc1ccc(C(C)(C)C)cc1)C(=O)c1ccc2c(=O)n3c(nc2c1)CCC3 |  | inactive: -24.1%
CN(C)/C=C1/NC(=S)NC1=O |  | inactive: 2.27%
CCOC(=O)c1[nH]c2ccc(OC)cc2c1NC(=O)c1cccc(OC)c1 | active: 13 µM | 
Cc1nc2scc(C)n2c(=O)c1S(=O)(=O)Nc1ccc(N2CCN(C(=O)C(C)C)CC2)cc1 | inconclusive: 14.6 µM [inhibitor, partial curve] | 
COc1cccc(C(=O)Nc2ccccc2N2CCN(C(=O)c3ccccc3)CC2)c1 | active: 23.1 µM | 
S=c1[nH]nc(-c2ccco2)n1/N=C/c1ccc(Cl)c(Cl)c1 |  | inactive: 15.9%
O=C(CSc1nnc(-c2cccnc2)o1)Nc1ccccn1 | inconclusive: 10.3 µM [activator, partial curve] | 
Cc1ccc(Nc2nc(-c3ccc(S(=O)(=O)N4CCOCC4)cc3)cs2)cc1Cl |  | inactive: 4%
O=[N+]([O-])c1cc(Cl)cc(/C=N/Nc2nc3ccccc3s2)c1O |  | inactive: 2.97%
Cc1cc([N+](=O)[O-])ccc1N(C)C | inconclusive: 32.6 µM [activator, partial curve, poor fit] | 
COc1ccc(CNC(=O)Nc2ccc(C)cc2)cc1 | inconclusive: 5.8 µM [activator, single point] | 
CCCCC(=O)NC(=S)Nc1ccc(S(=O)(=O)N2CCCC2)cc1 | inconclusive: 25.9 µM [inhibitor, partial curve, poor fit] | 
Cc1cc(NC(=O)CSc2nnc(-c3ccc([N+](=O)[O-])cc3)o2)no1 |  | inactive: 9.66%
O=c1[nH]ncc(N2CCCC2)c1Cl |  | inactive: 26.6%
O=C(O)CSc1nnc(COc2ccc(Br)cc2)n1-c1ccccc1 | inconclusive: 35.5 µM [activator, single point] | 
Cc1c(C(=O)N2CCN(C(=O)c3ccco3)CC2)sc2nc(-c3ccc(F)cc3)cn12 | inconclusive: 18.4 µM [inhibitor, single point] | 
Cc1onc(-c2ccccc2)c1C(=O)OCC(=O)N(C)c1ccccc1 |  | inactive: 9.16%
Cc1nnc(NC(=O)c2cc(-c3ccncc3)nc3c(C)cccc23)s1 | inconclusive: 18.3 µM [activator, single point] | 
O=C(COc1ccccc1[N+](=O)[O-])Nc1cccc(Cl)c1N1CCOCC1 | inconclusive: 29.1 µM [inhibitor, single point] | 
